Laboratory results taken from the supplement of paper PMC12823440, “Inhibitors supercharge kinase turnover through native proteolytic circuits” (Nature, 2025).
The list shows a part of the results. The calls rarely recur for the same compound in another form.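 Kinases, fused to nanoluciferase, were expressed in K562 cells; luminescence was measured every 4 h from 2 to 18 h as percent of control (DMSO = 100%, positive control = 0%). A time point is decreased if signal falls significantly (2 sigma). Hits were called by the authors by a rule that is not shown; the count of time points alone does not decide it.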

molecular target: MAP2K2 (UniProt P36507); test: number of time points (of 5) at which kinase-Nluc abundance scored as decreased, DMSO-normalised (count); higher = more persistent destabilization; details: K562; 2-18 h

Structure (SMILES)	number of time points
O=Nc1c(-c2c(O)[nH]c3cc(Br)ccc23)[nH]c2ccccc12 [GSK 3 Inhibitor IX] (2.5 µM)	0
Cn1c2cc([S+](C)[O-])sc2c2cnn(Cc3cccc(N)c3)c(=O)c21 (stereo not drawn) (2.5 µM)	0
Cc1cc(-n2c(=O)ccc3c[nH]c4nccc-4c32)ccc1F (10 µM)	0
CCCn1/c(=N/C(=O)c2cccc(C(N)=O)c2)[nH]c2ccccc21 [Takinib] (10 µM)	0
CO[C@H]1C[C@@H]2CC[C@@H](C)[C@@](O)(O2)C(=O)C(=O)N2CCCC[C@H]2C(=O)O[C@H]([C@H](C)C[C@@H]2CC[C@@H](OCCO)[C@H](OC)C2)CC(=O)[C@H](C)/C=C(\C)[C@@H](O)[C@@H](OC)C(=O)[C@H](C)C[C@H](C)/C=C/C=C/C=C/1C [Everolimus] (10 µM)	0
Cc1cccc(-c2[nH]ncc2-c2ccnc3ccccc23)n1 (10 µM)	0
CC1(N)CCN(c2cccnc2NC(=O)c2nc(-c3ncccc3C(F)(F)F)cnc2N)CC1 [Darovasertib] (10 µM)	0
COc1cc2c(cc1Nc1ncc(C(N)=O)c(Nc3c(F)cccc3C(F)(F)F)n1)CN(C)CC2 (2.5 µM)	0
COc1cc2ncnc(Nc3ccc(O)c(Br)c3)c2cc1OC (10 µM)	0
Nc1nc2c(nc(Br)n2[C@@H]2O[C@@H]3COP(=O)(O)O[C@H]3[C@H]2O)c(=O)[nH]1 [8-Bromo-cGMP (sodium)] (10 µM)	0
O=c1c2c([nH]n1-c1nc3ccccc3s1)CCCC2 (10 µM)	0
COC(=O)Nc1ccc(-c2nc(N3CCOCC3)c3cnn(C4CCN(Cc5cccnc5)CC4)c3n2)cc1 (10 µM)	0
N[C@@H]1CCCN(c2c(/C=C3\SC(=O)NC3=O)cccc2-c2ccccc2)C1 (10 µM)	0
Nc1nc(N)c2nc(-c3cccc(O)c3)c(-c3cccc(O)c3)nc2n1 (10 µM)	0
Cn1ncc(NC(=O)c2nc(-c3c(F)cccc3F)sc2N)c1N1CC[C@@H](N)[C@H](F)CC1 (10 µM)	0
C=C1C(=O)[C@@]23[C@H](O)C[C@@H]4C(C)(C)C(=O)CC[C@@]4(C)[C@@H]2CC[C@@H]1[C@H]3O [Glaucocalyxin A] (2.5 µM)	0
O=C(NCCO)c1cc(C(=O)NCCO)cc(C(=O)NCCO)c1 (10 µM)	0
CCC(=O)Nc1cccc(Oc2nc(Nc3ccc(N4CCN(C)CC4)cc3OC)ncc2Cl)c1 (10 µM)	0
Cc1nn(C)cc1-c1nc2c(N3CCN(Cc4ccc(Cl)cc4)CC3)c(Cl)cnc2[nH]1 (10 µM)	0

Structure (SMILES)	number of time points
CC(C)Oc1ccc(F)c(-c2cnc(N)c(C(=O)Nc3cnccc3N3CCC[C@@H](C(=O)O)C3)n2)c1 (2 µM)	0
Nc1ncc(C(=O)NC2CN(C(=O)C3CC3)C2)c2ccc(-c3cccc(F)c3)nc12 (2 µM)	0
O=C(ON=C1c2ccccc2-c2nc3ccccc3nc21)c1ccco1 (2.5 µM)	0
CC(C)=CC[C@@H](O)C1=CC(=O)c2c(O)ccc(O)c2C1=O [Shikonin] (10 µM)	0
COC(=O)Nc1ccc(-c2nc(N3CCOCC3)c3cnn(C4CCN(C(=O)OC)CC4)c3n2)cc1 (10 µM)	0
CNC(=O)c1ccc2c(c1)ncn2-c1ccc(CC(=O)OC(C)(C)C)cc1 (10 µM)	0
O=C1CC[C@H](NC(=O)Cc2ccccc2)C(=O)N1 [Antineoplaston A10] (10 µM)	0
COCCOCCc1c(C)c2cc(OC)c(O)c(C=O)c2oc1=O (10 µM)	0
Cc1ccc(C(=O)NC2CC2)cc1-n1ncc(C(=O)c2cccc(C#N)c2)c1N [Acumapimod] (10 µM)	0
O=C(NCCN1CCOCC1)Nc1nc2ccc(Sc3nnc4ccc(-c5ccc(F)cc5)nn34)cc2s1 (10 µM)	0
COc1cc(F)ccc1-c1ncnc(Nc2cccc(C[S@](C)(=N)=O)c2)n1 [Atuveciclib] (2.5 µM)	0
CCn1c(-c2nonc2N)nc2c(C#CC(C)(C)O)ncc(OC[C@H]3CCCNC3)c21 (10 µM)	0
O=c1[nH]ccc2nc(-c3ccc(CN4CCC(c5nc(-c6ccccn6)n[nH]5)CC4)cc3)c(-c3ccccc3)cc12 (10 µM)	0
COCCOc1ccc2c(c1)ncn2-c1ccc2cccc(N3CCC(N)CC3)c2n1 (10 µM)	0
CN1CCC(CNc2ccc3ncc(-c4cccc(OC(F)(F)F)c4)n3n2)CC1 (2.5 µM)	0
Cc1cc(C(=O)NC(C)(C)C)cc(C#Cc2ccc3c4c(oc3c2)C(C)(C)c2cc(NS(C)(=O)=O)ccc2C4=O)n1 (10 µM)	0
CC(O)(C#Cc1ccc2c(c1)N(c1nc(N)ncc1Cl)CC2)c1nccs1 (stereo not drawn) (2.5 µM)	0
COc1cc(-c2cc(-c3ccc(N4CCNCC4)cc3)cnc2C)cc(OC)c1OC (10 µM)	0
Cn1c(CNc2cccc(C(=O)NCc3ccccc3C(F)(F)F)c2)nnc1-c1ccncc1 (10 µM)	0

Rewritten in markdown: entries from further up.

| Structure (SMILES) | number of time points |
| --- | --- |
| Nc1ncc(C(=O)NC2CN(C(=O)C3CC3)C2)c2ccc(-c3cccc(F)c3)nc12 (2 µM) | 0 |
| O=C(ON=C1c2ccccc2-c2nc3ccccc3nc21)c1ccco1 (2.5 µM) | 0 |
| O=C1CC[C@H](NC(=O)Cc2ccccc2)C(=O)N1 [Antineoplaston A10] (10 µM) | 0 |
| Cc1ccc(C(=O)NC2CC2)cc1-n1ncc(C(=O)c2cccc(C#N)c2)c1N [Acumapimod] (10 µM) | 0 |
| COCCOc1ccc2c(c1)ncn2-c1ccc2cccc(N3CCC(N)CC3)c2n1 (10 µM) | 0 |
| Cc1cc(C(=O)NC(C)(C)C)cc(C#Cc2ccc3c4c(oc3c2)C(C)(C)c2cc(NS(C)(=O)=O)ccc2C4=O)n1 (10 µM) | 0 |
| CC(O)(C#Cc1ccc2c(c1)N(c1nc(N)ncc1Cl)CC2)c1nccs1 (stereo not drawn) (2.5 µM) | 0 |
